Measurements from PubChem BioAssay AID493014 (National Center for Advancing Translational Sciences (NCATS), 2011).
Screen size: about 340,000 compounds; about 170 (0.05%) were called active. The inconclusive results got no clear call from the source; some entries with a clear call stand among them for comparison. The call rests on the fitted dose curve; in most records, active means well fitted inhibition curve with a large enough effect in the signal ratio, with a control signal flat (not every such curve was filed as active); inconclusive means small, poorly fitted or top-dose-only effect, or effect the other way, or a change in a side signal; inactive means flat fitted curve, though single readings scatter; the % refers to the signal ratio. Potencies beside an inconclusive call are fits to weak or partial responses and may not hold up.

experiment: qHTS Assay to Find Inhibitors of Chronic Active B-Cell Receptor Signaling; settings: ABC-DLBCL IkBa-CBG/CBR reporter, luminescence ratio (green luciferase fused to IkBa over red control in TMD8 lymphoma cells), 4 h; activity change, negative = inhibition: at 46.1 µM (top of the series) unless noted;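 on activity change, negative = inhibition: plate controls were basal doxycycline-induced cells for no effect and cells given 10 µM MG132 for full effect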
How it was run: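 TMD8 ABC-DLBCL cells carrying doxycycline-inducible green luciferase fused to IkappaBalpha plus unfused red luciferase were exposed to compounds (up to 46 uM) for 4 hrs at 37C. Activity came from the overlap-corrected green/red luminescence ratio.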
Potency means the concentration at half of the fitted maximal effect.

SMILES	activity change, negative = inhibition	Potency
OCCNCc1c(OCc2ccc(Cl)cc2)ccc2ccccc12	inconclusive: -1.71%	
O=C(NNC(=S)NC(=O)c1ccccc1)c1ccc(O)cc1		inconclusive: 11.2 µM [falling, partial curve]
CN(CC(=O)Nc1ccccc1Cl)C(=O)Cn1nnc(-c2ccc(F)cc2)n1	inconclusive: 5.75%	
Cc1ccc(C(=O)Nc2ccc3c(c2)OCCO3)c(C)c1	inconclusive: 4.23%	
Cc1onc(-c2ccccc2Cl)c1C(=O)O/N=C(\N)c1ccccc1	inactive: 0.494%	
CNC(=S)NNC(=O)c1cc(-c2cccnc2)nc2ccccc12		inconclusive: 7.08 µM [falling, partial curve, poor fit]
CCCSc1nc2sc3c(c2c(=O)n1-c1ccc(OC)cc1)CCN(C)C3	inconclusive: 3.44%	
O=C(Nc1ccccc1)O/N=C/c1ccccc1Cl		inconclusive: 29.1 µM [falling, single point]
Cc1cc(OC(=O)c2c(F)cc(F)cc2F)nc(C)n1	inconclusive: 14.5%	
Cc1ccc(NC(=O)CSc2nnc(COc3ccc(C#N)cc3)n2-c2ccccc2)cc1C	inconclusive: 0.915%	
COc1ccc(N2CCN(c3oc(-c4ccc(OC)c(OC)c4)nc3C#N)CC2)cc1	inconclusive: 8.09%	
CCCCCCCc1c(C#N)c(N)[nH]c(=S)c1C#N	inactive: 19.1%	
COc1cccc(-c2nnc3sc(C4CCCCC4)nn23)c1		inconclusive: 25.9 µM [rising, single point]
Cn1c(/C=C/c2ccc(Cl)cc2)nc2ccccc2c1=O	inconclusive: 10.8%	
CN(Cc1cnn(C)c1)Cc1nc(-c2ccc(Cl)cc2)no1	inconclusive: 11.1%	
CCOC(=O)C1=C(COC(=O)COc2cccc(C)c2C)NC(=O)NC1C (stereo not given)	inactive: 1.52%	
CCc1c(C)sc(NC(=O)c2cc(-c3ccco3)on2)c1C#N	inconclusive: -2.08%	
N#CCCN(C(=O)c1ccco1)c1ccccc1	inactive: 1.48%	
CC1CCN(S(=O)(=O)c2cccc(-c3cn4cc(Cl)ccc4n3)c2)CC1	inconclusive: 20.5%	
COC(=O)c1ccc(NC(=O)c2ccc(C)cc2)o1	inconclusive: -7.85%	
Cn1c(SCC(=O)N/N=C/c2ccc([N+](=O)[O-])s2)nnc1-c1ccc(Cl)cc1		inconclusive: 16.4 µM [falling, partial curve, poor fit]
Cc1ccnc(NC(=O)Nc2cccc(F)c2)n1	inactive: 0.191%	
O=C(Nc1ccccc1F)NC1CCCc2ccccc21 (stereo not given)	inconclusive: -151%	
O=C(CSc1ccc(-c2nc3ccccc3[nH]2)cn1)Nc1ccc(S(=O)(=O)NC2CC2)cc1	inconclusive: 28.6%	
COc1ccccc1-c1cc(C(F)(F)F)nc(S(=O)(=O)CCCC(=O)N2CCOCC2)n1	inconclusive: 9.67%	
COc1ccc(OC)c(N(CC(=O)NCc2ccccc2)S(=O)(=O)c2ccc(OC)c(OC)c2)c1	inactive: 11%	
CCN(CC)C(=O)Nc1c(C)n(C)n(-c2ccccc2)c1=O	inconclusive: 9.28%	

SMILES	activity change, negative = inhibition	Potency
CC[C@H]1CN2CCc3cc(OC)c(OC)cc3[C@@H]2C[C@@H]1C[C@H]1NCCc2cc(OC)c(OC)cc21		inconclusive: 0.282 µM [rising, full curve, poor fit]
O=C(Nc1ccncc1)c1ccc(-c2ccccc2)cc1		inconclusive: 2.82 µM [falling, single point]
CCOc1ccc(NC(=O)c2c(Nc3ccc(OC)cc3OC)sc(C(=O)c3ccc(Cl)cc3)c2N)cc1	inactive: 4.94%	
COc1cccc(CN(C(=O)Cn2nnc(-c3ccccc3F)n2)C(C(=O)NC(C)(C)C)c2ccncc2)c1 (stereo not given)	inactive: -8.73%	
O=C(N/N=C/c1ccco1)C1CC1(c1ccccc1)c1ccccc1 (stereo not given)	inconclusive: 13%	
O=S(=O)(Nc1ccc(Cl)cn1)c1cnc(Cl)c(Br)c1	inconclusive: 14.5%	
Cc1cc(C)n2cc(CSc3nnnn3-c3ccccc3)nc2n1	inconclusive: -14.2%	
CC1OC(O[C@H]2CC[C@]3(C)C4C=C[C@]56OC[C@@]7(CC[C@@H](C)[C@H](C)C75)[C@H](O)C[C@@]6(C)[C@]4(C)CC[C@H]3C2(C)C)C(OC2OC(CO)C(O)C(O)C2OC2OCC(O)C(O)C2O)C(O)C1O (stereo not given in full)		inconclusive: 11.2 µM [rising, partial curve, poor fit]
CCOC(=O)N1CCN(C(=O)c2ccc(-n3c(=S)[nH]c4ccccc4c3=O)cc2)CC1	inactive: -2.21%	
COc1n[nH]c(C(=O)Nc2cc(F)ccc2C)c1[N+](=O)[O-]	inactive: -0.0916%	
Cc1csc(NC(=O)c2cc3c(s2)CCCC3)n1		inconclusive: 31.6 µM [falling, partial curve]
Oc1c(C=Nc2cccnc2)sc2ccccc12		inconclusive: 29.1 µM [falling, single point]
Cc1ccc(-n2ncc3c(=O)n(CC#N)cnc32)cc1C		inconclusive: 12.6 µM [falling, single point]
O=c1[nH]c2ccccc2cc1CN(Cc1ccco1)S(=O)(=O)c1ccccc1		inconclusive: 1.58 µM [falling, full curve, poor fit]
COc1ccc(C(=O)Nc2ccc([N+](=O)[O-])cn2)cc1OC	inconclusive: -19.2%	
COc1ccc(NC(=O)c2cc3c(-c4ccc(OC)c(OC)c4)nn(C)c3s2)cc1OC	inconclusive: 17.1%	
Cc1noc(NC(=O)c2cccc(Cl)c2Cl)c1C#N	inconclusive: 8%	
COc1cc(OC)cc(C(=O)NC(C(=O)NCCN(C)C)C23CC4CC(CC(C4)C2)C3)c1 (stereo not given)	inconclusive: 1.18%	
COc1ccc(N=C2S/C(=C\c3ccc(OCC(=O)O)cc3)C(=O)N2CCc2c[nH]c3ccccc23)cc1	inactive: 0.716%	
C=CCn1c(CCNC(=O)c2ccc(Cl)c(Cl)c2)nnc1SCCOc1ccc(OC)cc1	inactive: -1.14%	
NNC(=O)CSc1nnc(-c2ccccc2)n1-c1ccccc1	inconclusive: -2.91%	
Cc1ccccc1OCCNC(=O)c1ccc2ccccc2n1	inconclusive: -2.05%	
O=S(=O)(O)c1ccc(N=Nc2ccccc2)cc1		inconclusive: 31.6 µM [rising, partial curve, poor fit]
Cn1c(=O)c2c(SCC(=O)NCC3CCCO3)nc(-c3cccs3)nc2n(C)c1=O (stereo not given)	inconclusive: 2.96%	
CN(C)c1ccc(/C=C2\CCC/C(=C\c3ccccc3)C2=O)cc1	inactive: 3.95%	
CCOC(=O)c1ccc(N2CCN(c3cccc(OC)c3)CC2)c(NC(=O)Nc2ccc(OCC)cc2)c1	inconclusive: -0.727%	
Cc1ccc2c(cnn2C(=O)CCCC(=O)NC(C)c2ccccc2)c1 (stereo not given)	inactive: 18%	

SMILES	activity change, negative = inhibition	Potency
COc1cccc(-c2sc3ccc(OC)cc3c2-c2ccc(OCCN3CCOCC3)cc2)c1	inactive: 0.66%	
Cc1ccc(-c2csc(Nc3ccc(S(N)(=O)=O)cc3)n2)o1	inactive: 10.4%	
COc1ccc(OCC(O)CNC(=O)c2cccs2)cc1 (stereo not given)	inconclusive: 9.45%	
CCn1c(SCC(=O)Nc2ccc(OCc3ccccc3)cc2)nnc1-c1ccco1	inconclusive: 1.19%	
C/C(=N\N=C1/NC(=O)C(C)S1)c1ccc([N+](=O)[O-])cc1 (stereo not given)	inconclusive: -1.43%	
CCOc1cccc(NC(=O)/C(C#N)=C\c2cn(CC(=O)O)c3ccccc23)c1	inconclusive: -2.64%	
C/C(=N/NC(=O)c1ccccc1)C1=C(O)CC(C)(C)CC1=O		inconclusive: 11.2 µM [falling, single point]
COc1ccc(C(=O)N2N=C(c3cccc(OC)c3)CC2(O)C(F)(F)F)cc1 (stereo not given)	inactive: -15.5%	
COc1cc(C(C)=O)ccc1OCCN1CCC(Cc2ccccc2)CC1	inconclusive: -14.1%	
COc1ccc(/C=N/NC(=O)c2cccnc2)cc1CSc1ccccn1	inconclusive: 7.72%	
COc1ccc(/C=N/NC(N)=S)cc1OC(=O)c1ccccc1		inconclusive: 16.4 µM [falling, partial curve, poor fit]
Cc1cc(C(=O)NCc2cc(C)n(C)n2)sc1-c1ccccc1	inactive: -29.6%	
COc1ccc(OC)c(N2C(=O)CC(NNC(=O)c3ccc4c(c3)OCO4)C2=O)c1 (stereo not given)	inactive: -13.1%	
Cc1noc(NS(=O)(=O)c2ccc(NC(=O)/C=C/c3ccc(Br)cc3)cc2)c1C		inconclusive: 25.1 µM [falling, single point]
S=C(NC1CCCCC1)N1CCOCCOCCN(C(=S)NC2CCCCC2)CCOCC1	inconclusive: -16.3%	
O=C(O)c1cccc(-c2ccc(/C=N/NC(=O)C3COc4ccccc4O3)o2)c1 (stereo not given)	inconclusive: 2.1%	
O=C(c1ccccc1)c1cccc(NC(=O)c2ccc(Br)o2)c1	inconclusive: 13.4%	
O=C(NC(=S)Nc1ccccn1)c1cncc(Br)c1		inconclusive: 29.1 µM [falling, single point]
COc1ccc(-c2cc(-c3n[nH]c(=S)n3-c3ccccc3OC)[nH]n2)cc1		inconclusive: 25.9 µM [falling, partial curve, poor fit]
CC1(C)Cc2cccc(OCC(=O)NCc3ccccc3F)c2O1	inactive: -4.79%	
CCOC(=O)CCNC(=O)N1CCCC(N(C)CCc2ccc(OC)c(OC)c2)C1 (stereo not given)	inactive: 2.09%	
O=C(Cn1c(=O)oc2cc(S(=O)(=O)N3CCCCC3)ccc21)N1CCc2ccccc2C1	inconclusive: -2.53%	
CCc1ccc(CN(C)C(=O)C2CCC(=O)N(Cc3cccc(OC)c3)C2)nc1 (stereo not given)	inconclusive: -2.51%	
C=CCNc1nc(N)c([N+](=O)[O-])c(Nc2ccccc2OC)n1	inactive: -1.31%	
O=C(COc1ccccc1-c1ccccc1)NCc1ccco1	inconclusive: -1.01%	
Cc1nn(-c2ccccc2)c(C)c1NC(=O)COc1ccc(C#N)cc1	inactive: -1.14%	

21 entries already listed, sorted by heavy-atom count, high to low.
SMILES	activity change, negative = inhibition	Potency
CC1OC(O[C@H]2CC[C@]3(C)C4C=C[C@]56OC[C@@]7(CC[C@@H](C)[C@H](C)C75)[C@H](O)C[C@@]6(C)[C@]4(C)CC[C@H]3C2(C)C)C(OC2OC(CO)C(O)C(O)C2OC2OCC(O)C(O)C2O)C(O)C1O (stereo not given in full)		inconclusive: 11.2 µM [rising, partial curve, poor fit]
COc1cccc(CN(C(=O)Cn2nnc(-c3ccccc3F)n2)C(C(=O)NC(C)(C)C)c2ccncc2)c1 (stereo not given)	inactive: -8.73%	
CCOC(=O)c1ccc(N2CCN(c3cccc(OC)c3)CC2)c(NC(=O)Nc2ccc(OCC)cc2)c1	inconclusive: -0.727%	
CC[C@H]1CN2CCc3cc(OC)c(OC)cc3[C@@H]2C[C@@H]1C[C@H]1NCCc2cc(OC)c(OC)cc21		inconclusive: 0.282 µM [rising, full curve, poor fit]
Cc1ccc(NC(=O)CSc2nnc(COc3ccc(C#N)cc3)n2-c2ccccc2)cc1C	inconclusive: 0.915%	
C=CCn1c(CCNC(=O)c2ccc(Cl)c(Cl)c2)nnc1SCCOc1ccc(OC)cc1	inactive: -1.14%	
COc1cc(OC)cc(C(=O)NC(C(=O)NCCN(C)C)C23CC4CC(CC(C4)C2)C3)c1 (stereo not given)	inconclusive: 1.18%	
COc1ccc(N2CCN(c3oc(-c4ccc(OC)c(OC)c4)nc3C#N)CC2)cc1	inconclusive: 8.09%	
COc1ccc(OC)c(N2C(=O)CC(NNC(=O)c3ccc4c(c3)OCO4)C2=O)c1 (stereo not given)	inactive: -13.1%	
Cc1noc(NS(=O)(=O)c2ccc(NC(=O)/C=C/c3ccc(Br)cc3)cc2)c1C		inconclusive: 25.1 µM [falling, single point]
COc1ccc(C(=O)N2N=C(c3cccc(OC)c3)CC2(O)C(F)(F)F)cc1 (stereo not given)	inactive: -15.5%	
CCOC(=O)C1=C(COC(=O)COc2cccc(C)c2C)NC(=O)NC1C (stereo not given)	inactive: 1.52%	
Cc1nn(-c2ccccc2)c(C)c1NC(=O)COc1ccc(C#N)cc1	inactive: -1.14%	
Cc1onc(-c2ccccc2Cl)c1C(=O)O/N=C(\N)c1ccccc1	inactive: 0.494%	
OCCNCc1c(OCc2ccc(Cl)cc2)ccc2ccccc12	inconclusive: -1.71%	
Cc1cc(C(=O)NCc2cc(C)n(C)n2)sc1-c1ccccc1	inactive: -29.6%	
COc1cccc(-c2nnc3sc(C4CCCCC4)nn23)c1		inconclusive: 25.9 µM [rising, single point]
Cc1ccc(C(=O)Nc2ccc3c(c2)OCCO3)c(C)c1	inconclusive: 4.23%	
C/C(=N\N=C1/NC(=O)C(C)S1)c1ccc([N+](=O)[O-])cc1 (stereo not given)	inconclusive: -1.43%	
COC(=O)c1ccc(NC(=O)c2ccc(C)cc2)o1	inconclusive: -7.85%	
Cc1csc(NC(=O)c2cc3c(s2)CCCC3)n1		inconclusive: 31.6 µM [falling, partial curve]
